Source: doi:10.1371/journal.pone.0140310, primary screening data, rounded.

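The test systems are human melanoma cell lines, treated with a pair of drugs for 72 h and then stained and imaged. The read-out is the fraction of cleaved-PARP-positive nuclei, in % of that fraction in the DMSO control; 200 means twice the control level of this apoptosis marker. Concentrations were fixed for each drug; these are the higher of two levels. No replicate spread is given; individual values may be noisy. Basal and induced levels differ widely between cell lines.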 An unselected part of the screen is shown.

Drug key:
darinaparsin (2 µM): C[As](C)SC[C@H](NC(=O)CC[C@H](N)C(=O)O)C(=O)NCC(=O)O
SNS-032 (0.05 µM): CC(C)(C)c1cnc(CSc2cnc(NC(=O)C3CCNCC3)s2)o1
AS-252424 (5 µM): O=C1NC(=O)/C(=C/c2ccc(-c3ccc(F)cc3O)o2)S1
stibogluconate (10 µM): O=C(O)[C@@H]1[O][Sb](=[O])([O][Sb]2(=[O])[O][C@H]([C@H](O)CO)[C@H](O)[C@H](C(=O)O)[O]2)[O][C@H]([C@H](O)CO)[C@@H]1O (some centres undefined)
sorafenib (2 µM): CNC(=O)c1cc(Oc2ccc(NC(=O)Nc3ccc(Cl)c(C(F)(F)F)c3)cc2)ccn1
GW441756 (2 µM): Cn1cc(/C=C2\C(=O)Nc3cccnc32)c2ccccc21
cisplatin (8 µM): N.N.[Cl][Pt][Cl]
palbociclib (0.2 µM): CC(=O)c1c(C)c2cnc(Nc3ccc(N4CCNCC4)cn3)nc2n(C2CCCC2)c1=O
GSK0660 (5 µM): COC(=O)c1sccc1S(=O)(=O)Nc1ccc(Nc2ccccc2)cc1OC
ZM336372 (10 µM): Cc1ccc(NC(=O)c2cccc(N(C)C)c2)cc1NC(=O)c1ccc(O)cc1

Combination	A375
palbociclib and stibogluconate	74.8
GW441756 and sorafenib	215
cisplatin and GW441756	111
SNS-032 and AS-252424	35.2
GSK0660 and AS-252424	98.5
sorafenib and darinaparsin	115
cisplatin and palbociclib	121
darinaparsin and GSK0660	180
palbociclib and AS-252424	193
stibogluconate and sorafenib	71.3
ZM336372 and GSK0660	53.9
GW441756 and ZM336372	69.4
stibogluconate and cisplatin	522
GSK0660 and sorafenib	102
AS-252424 and GW441756	41.2
GW441756 and darinaparsin	75.2
darinaparsin and palbociclib	115
darinaparsin and cisplatin	337
cisplatin and GSK0660	347
ZM336372 and AS-252424	46.8
sorafenib and palbociclib	45.0
GSK0660 and GW441756	97.2
GSK0660 and stibogluconate	50.6
GW441756 and palbociclib	161
SNS-032 and GSK0660	92.9
stibogluconate and GW441756	55.2
cisplatin and sorafenib	334
palbociclib and GSK0660	205
AS-252424 and cisplatin	196

For reference, 4 entries once more:

| Combination | A375 |
|---|---|
| GSK0660 and AS-252424 | 98.5 |
| palbociclib and AS-252424 | 193 |
| cisplatin and GSK0660 | 347 |
| stibogluconate and cisplatin | 522 |